# These are yes or no findings as the source states them, for the method shown. In cells and extracts the contact can be indirect. Some binding calls cover weakened binding; strength is not graded here.
# Chains of the proteins cited; added tags and fusions are not shown. Lines headed by an entry give the natural chain unless they say otherwise; changes in a name come on top. A line that says so, or that is headed by a name, gives the form on record, which may keep a tag or linker. Residues count along the entry.
# UniProt P06213: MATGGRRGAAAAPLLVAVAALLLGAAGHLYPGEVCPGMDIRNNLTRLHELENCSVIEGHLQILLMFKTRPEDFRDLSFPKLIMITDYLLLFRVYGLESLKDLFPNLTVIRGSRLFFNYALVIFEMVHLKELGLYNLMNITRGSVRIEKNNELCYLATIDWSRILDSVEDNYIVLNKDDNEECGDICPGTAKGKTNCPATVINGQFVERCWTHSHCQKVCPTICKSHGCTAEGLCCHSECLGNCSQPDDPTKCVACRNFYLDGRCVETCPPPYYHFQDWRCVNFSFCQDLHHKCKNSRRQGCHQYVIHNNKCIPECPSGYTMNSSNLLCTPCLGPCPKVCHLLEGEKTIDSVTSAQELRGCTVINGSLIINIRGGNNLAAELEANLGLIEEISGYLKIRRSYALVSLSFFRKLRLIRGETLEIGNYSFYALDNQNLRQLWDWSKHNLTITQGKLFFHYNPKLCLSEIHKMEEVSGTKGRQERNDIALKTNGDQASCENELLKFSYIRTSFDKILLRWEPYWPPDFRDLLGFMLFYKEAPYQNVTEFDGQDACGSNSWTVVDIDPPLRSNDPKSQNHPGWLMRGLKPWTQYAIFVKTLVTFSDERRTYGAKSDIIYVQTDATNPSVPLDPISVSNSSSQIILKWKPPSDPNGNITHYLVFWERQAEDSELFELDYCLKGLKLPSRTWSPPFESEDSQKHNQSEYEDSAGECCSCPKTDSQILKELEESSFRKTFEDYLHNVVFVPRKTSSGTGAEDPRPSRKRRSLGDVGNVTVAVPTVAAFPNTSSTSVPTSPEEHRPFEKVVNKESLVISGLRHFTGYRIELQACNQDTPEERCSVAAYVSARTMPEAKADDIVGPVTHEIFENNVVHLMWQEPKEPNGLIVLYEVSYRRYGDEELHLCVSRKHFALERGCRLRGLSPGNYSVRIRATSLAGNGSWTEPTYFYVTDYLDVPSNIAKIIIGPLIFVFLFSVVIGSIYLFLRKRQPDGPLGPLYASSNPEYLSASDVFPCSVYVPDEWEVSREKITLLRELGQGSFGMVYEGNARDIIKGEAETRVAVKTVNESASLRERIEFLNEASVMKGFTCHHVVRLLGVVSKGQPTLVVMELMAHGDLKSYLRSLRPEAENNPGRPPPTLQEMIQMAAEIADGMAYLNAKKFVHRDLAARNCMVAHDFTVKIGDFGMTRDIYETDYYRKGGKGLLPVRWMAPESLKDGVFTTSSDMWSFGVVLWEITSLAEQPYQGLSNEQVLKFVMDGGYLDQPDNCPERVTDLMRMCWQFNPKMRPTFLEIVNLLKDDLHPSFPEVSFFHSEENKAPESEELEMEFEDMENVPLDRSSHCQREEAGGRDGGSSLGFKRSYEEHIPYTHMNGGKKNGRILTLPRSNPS
# HA-tagged insulin receptor (pro-IR cDNA with a C-terminal HA-tag): residues 28-1382 of P06213
# nsFCN3-Flag (O75636-2, form named): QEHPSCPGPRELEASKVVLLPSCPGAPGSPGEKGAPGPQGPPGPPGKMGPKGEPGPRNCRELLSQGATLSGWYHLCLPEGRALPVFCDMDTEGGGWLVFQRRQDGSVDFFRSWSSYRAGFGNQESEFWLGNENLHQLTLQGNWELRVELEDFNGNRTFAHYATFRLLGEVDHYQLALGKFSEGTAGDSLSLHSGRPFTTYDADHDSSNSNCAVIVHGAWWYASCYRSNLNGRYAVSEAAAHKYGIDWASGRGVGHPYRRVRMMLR
# Tests used:
# [1] = biological target: HA-tagged insulin receptor (pro-IR cDNA with a C-terminal HA-tag) (UniProt P06213); assay: co-IP; anti-HA immunoprecipitation of IR-HA from lysates of HEK-293T cells transfected with IR-HA, with or without FCN3 or nsFCN3; protein A/G sepharose beads, IP lysis buffer, 4 °C overnight; blots for FCN3, PTP1B, Furin and HA
# FCN3-Flag (human) = FCN3-Flag (human) (UniProt O75636); assay: co-IP; reverse semi-endogenous co-IP: Flag antibody immunoprecipitation from lysates of HEK-293T cells transfected with FCN3-Flag or nsFCN3-Flag; protein A/G sepharose beads, IP lysis buffer, 4 °C overnight; blots for IR-β, pro-IR, PTP1B and FCN3
# nsFCN3-Flag (human) = nsFCN3-Flag (human) (UniProt O75636); assay: as above
Molecule,binding [1],binding (FCN3-Flag (human)),binding (nsFCN3-Flag (human))
"no-secretory mutant of FCN3 (nsFCN3, Δaa 2–23) (from UniProt O75636-2 24-288)",binds,,
pro-insulin receptor (pro-IR) (from UniProt P06213 28-1382),,binds,binds
Ficolin 3 (FCN3) (from UniProt O75636-2 24-288),binds,,
"insulin receptor β (IR-β), endogenous (from UniProt P06213 763-1382)",,binds,binds
"protein tyrosine phosphatase nonreceptor type 1 (PTP1B) (enzyme, UniProt P18031 1-435) MEMEKEFEQIDKSGSWAAIYQDIRHEASDFPCRVAKLPKNKNRNRYRDVSPFDHSRIKLHQEDNDYINASLIKMEEAQRSYILTQGPLPNTCGHFWEMVWEQKSRGVVMLNRVMEKGSLKCAQYWPQKEEKEMIFEDTNLKLTLISEDIKSYYTVRQLELENLTTQETREILHFHYTTWPDFGVPESPASFLNFLFKVRESGSLSPEHGPVVVHCSAGIGRSGTFCLADTCLLLMDKRKDPSSVDIKKVLLEMRKFRMGLIQTADQLRFSYLAVIEGAKFIMGDSSVQDQWKELSHEDLEPPPEHIPPPPRPPKRILEPHNGKCREFFPNHQWVKEETQEDKDCPIKEEKGSPLNAAPYGIESMSQDTEVRSRVVGGSLRGAQAASPAKGEPSLPEKDEDHALSYWKPFLVNMCVATVLTAGAYLCYRFLFNSNT",binds,binds,binds
